Literature values in patent US20080255115A1, “THIAZOLIDINEDIONE DERIVATIVES AS PI3 KINASE INHIBITORS” (priority 2007, published 2008).

Protein sequences, listed by entry. Tags and fused reporters are not part of them.
UniProt P68400, whole entry: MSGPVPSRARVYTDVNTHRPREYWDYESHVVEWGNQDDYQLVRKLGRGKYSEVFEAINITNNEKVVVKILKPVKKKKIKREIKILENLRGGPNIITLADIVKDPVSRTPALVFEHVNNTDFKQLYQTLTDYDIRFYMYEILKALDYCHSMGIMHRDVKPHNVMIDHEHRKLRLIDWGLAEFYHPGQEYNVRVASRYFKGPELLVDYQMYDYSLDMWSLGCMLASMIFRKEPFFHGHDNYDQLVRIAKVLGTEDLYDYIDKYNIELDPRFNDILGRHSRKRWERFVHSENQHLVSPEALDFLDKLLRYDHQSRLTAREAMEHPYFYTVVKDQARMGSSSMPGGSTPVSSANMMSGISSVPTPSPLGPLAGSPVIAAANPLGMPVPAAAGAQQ

Legend:
Class I PI3-kinases = conditions: LY294002, Fruman et al. 1998; read-out: IC50 against each of these PI3-kinases (Class I); cited from earlier work
CK2 protein kinase = CK2 protein kinase (Homo sapiens, UniProt P68400); conditions: LY294002, background section; cited from earlier work

O=c1cc(N2CCOCC2)oc2c(-c3ccccc3)cccc12 [LY294002]
IC50 (Class I PI3-kinases): 15 to 20 µM
IC50 (CK2 protein kinase): 5 to 10 µM
